Some of the results follow. The data scatter; read single values as rough.
What was measured:
Conditions in all cases: 10 µM
[1] = tested on: Plasmodium vivax liver stage (primary human hepatocyte culture); test: hypnozoite quantity inhibition (% inhibition); higher = more active against hypnozoites
[2] = tested on: Plasmodium vivax liver stage (primary human hepatocyte culture); test: schizont net growth area inhibition (% inhibition); higher = more active against liver schizonts
[3] = tested on: primary human hepatocytes; test: hepatic nuclei reduction relative to DMSO (100 - % of negative control); higher = more toxic to hepatocytes
[4] = assay mode: Prophylactic (treated before or shortly after infection), fixed day 6 post-infection
[5] = assay mode: Radical Cure (treated from day 5 post-infection for 3 days), fixed day 8 post-infection

Row | Compound | hypnozoite quantity inhibition [1, 4] | hypnozoite quantity inhibition [1, 5] | schizont net growth area inhibition [2, 4] | schizont net growth area inhibition [2, 5] | hepatic nuclei reduction [3, 4] [%] | hepatic nuclei reduction [3, 5] [%]
1 | O=C1NC(=O)[C@]2(CCOc3ccc(F)cc32)N1 | 15 | -2 | 45.7 | -10.6 | -4 | 8
2 | Cc1cc(Nc2ccc(C(F)(F)F)cc2)n2ccnc2n1 | 0 | -53 | 19.8 | 36.1 | -4 | 4
3 | CCN(CC)CCCC(C)Nc1cc(OC)cc2cccnc12 (stereo not given) | 58 | 26 | 36.8 | 42.2 | 0 | -7
4 | O=[N+]([O-])c1cn2c(n1)OC[C@@H](OCc1ccc(OC(F)(F)F)cc1)C2 | -76 | 16 | -69.5 | 32 | -10 | -1
5 | O=C(Nc1cccc(-c2nc3ccccc3[nH]2)c1)c1cccc(NC(=O)c2ccco2)c1 | 10.1 | 59.1 | 80.5 | 46.8 | 5 | -4
6 | CCOC(=O)C1CCN(C(=O)CN2C(=O)c3ccccc3C2c2c[nH]c3ccccc23)CC1 (stereo not given) | -3.2 | -0.8 | 21.3 | -116 | 1 | -6
7 | CCOC(=O)c1cn(CC)c2cc(N3CCCCC3)c(F)cc2c1=O | 49.3 | 49.6 | 80.6 | -4.1 | -11 | 10
8 | C=CCc1c(C)nc2ccccc2c1O | 7 | 4.7 | 0.2 | 41.3 | 2 | -5
9 | CCOc1cccc2sc(N(Cc3cccnc3)C(=O)C3CCCCC3)nc12 | 0 | 34.6 | -22.1 | 32.2 | -5 | -1
10 | Cc1cc(Nc2ccc(Cl)cc2)n2nc(C(F)(F)F)nc2n1 | 9.1 | 49.6 | 60.5 | -7.7 | -9 | -1
11 | c1ccc(C[C@@H]2CN(c3nccc(Oc4ccc(-n5ccnc5)cc4)n3)CCN2)cc1 | 10 | -62 | 47 | -146 | -5 | -6
12 | CS(=O)(=O)c1ccc(-c2cnc(N)c(-c3ccc(C(F)(F)F)nc3)n2)cc1 | 99 | 26 | 102 | 105 | -12 | -9
13 | CC1(C)c2nc(-c3ccc(F)cc3)c(Nc3ccc(F)cc3)n2CCN1C(=O)CN | 92 | -1 | 97 | 94.2 | 3 | -6
14 | COc1cc2ncnc(NC3CCN(Cc4ccccc4)CC3)c2cc1OC | -83 | -23 | 34.4 | -62.9 | 9 | 3
15 | Oc1ccc2ccccc2c1CNc1nc2ccccc2[nH]1 | 13.3 | 40.1 | -6.3 | 27.3 | 1 | -3
16 | COc1ccc(-c2nc(NC(=O)CS(=O)(=O)c3ccc(F)cc3)sc2C)cc1 | 1.7 | 19.8 | 51.9 | -34.4 | 15 | 0
17 | Cc1oncc1C(=O)Nc1ccc(C(F)(F)F)cc1 | 22 | -54 | 21.7 | -33.6 | 4 | -4
18 | CC(C)(C)c1ccc(N[C@@H]2CCCC[C@H]2NC(=O)c2ccco2)cc1 | 8 | -2 | -2.4 | -59.2 | -5 | -7
19 | FC(F)(F)c1cc(NCCc2ccccc2)nc(-c2ccccn2)n1 | 31 | -12 | 23.1 | -24.7 | 6 | 5
20 | O=C(Nc1ccccc1-c1nc2c(C(=O)O)cccc2o1)c1ccccc1 | 4 | -31 | 26.3 | -43.9 | -7 | -4
21 | CCOc1ccccc1CNC(=O)C1c2ccccc2C(=O)N(CC(C)C)C1c1cccs1 (stereo not given) | -13.9 | 29.2 | -27.7 | -52.8 | 4 | -4
22 | COc1ccc2nc(C)cc(Nc3ccccc3O)c2c1 | -8 | 38.2 | 4.6 | -12.4 | -4 | -4
23 | Clc1ccc2c(N[C@H]3CCCC[C@@H]3Nc3ccnc4cc(Cl)ccc34)ccnc2c1 | -42 | -20 | 93.3 | 1.6 | 13 | -2
24 | CN(C)Cc1ccccc1CNc1ccnc2cc(Cl)ccc12 | -1 | 41 | 49.4 | 21.2 | -5 | -9
25 | COc1cc(C2=NCCN2)cc2cc(-c3ccc(C4=NCCN4)cc3)oc12 | 46 | -10 | -28.2 | -27 | 1 | 2
26 | COc1ccc(-c2nonc2NC(=O)c2cccc(C)c2)cc1OC | 3.2 | 29.2 | 14.1 | -13.8 | -8 | -10
27 | CC1CCN(Cc2ccc(NC(=O)c3cc4ccc5cccnc5c4[nH]3)cc2)CC1 | 2.5 | -52.5 | 63.4 | -103 | -6 | -6
28 | O=C1CC(O)(C(F)(F)C(F)(F)F)Oc2ccccc21 (stereo not given) | -13.9 | 56.5 | 77.8 | 40.5 | -5 | 5
29 | CC1CCN(Cc2c(O)ccc3cc(-c4nc5ccccc5s4)c(=O)oc23)CC1 | -11 | 42.7 | 37.5 | -51 | -30 | -14
30 | O=C(NCc1ccoc1)N1CCN(Cc2ccc3c(c2)OCO3)CC1 | -78 | -62 | 7.9 | -130 | 0 | 2

A second format for some results above.
Row	Compound	hypnozoite quantity inhibition [1, 4]	hypnozoite quantity inhibition [1, 5]	schizont net growth area inhibition [2, 4]	schizont net growth area inhibition [2, 5]	hepatic nuclei reduction [3, 4] [%]	hepatic nuclei reduction [3, 5] [%]
19	FC(F)(F)c1cc(NCCc2ccccc2)nc(-c2ccccn2)n1	31	-12	23.1	-24.7	6	5
23	Clc1ccc2c(N[C@H]3CCCC[C@@H]3Nc3ccnc4cc(Cl)ccc34)ccnc2c1	-42	-20	93.3	1.6	13	-2

Reference: the supplement of paper PMC8497498
